Tests used:
caspase-3 = test: qRT-PCR caspase-3 level; type: cell-based, human; conditions: HCT-116 cells, 72 h, versus untreated cells
caspase-8 = test: qRT-PCR caspase-8 level; type: cell-based, human; conditions: HCT-116 cells, 72 h, versus untreated cells
in vitro = conditions: human

CN[C@@H]1C[C@H]2O[C@@](C)([C@@H]1OC)n1c3ccccc3c3c4c(c5c6ccccc6n2c5c31)C(=O)NC4 [Staurosporine, reference compound]
RT-PCR (Fold Change) Caspase-3 (caspase-3): 6.8073 Fold Change
RT-PCR (Fold Change) Caspase-8 (caspase-8): 3.4529 Fold Change
IC50 (in vitro): 51.5 ± 2.2 µM
